Assay results: the supplement of paper PMC6411743
± gives the standard deviation of the averaged measurements. Only a part is listed here, and it is no random draw. Most values lie at the level of the controls, where differences are scatter.

Chains of the proteins cited; added tags and fusions are not shown. Lines headed by an entry give the natural chain unless they say otherwise; changes in a name come on top.
UniProt P84095: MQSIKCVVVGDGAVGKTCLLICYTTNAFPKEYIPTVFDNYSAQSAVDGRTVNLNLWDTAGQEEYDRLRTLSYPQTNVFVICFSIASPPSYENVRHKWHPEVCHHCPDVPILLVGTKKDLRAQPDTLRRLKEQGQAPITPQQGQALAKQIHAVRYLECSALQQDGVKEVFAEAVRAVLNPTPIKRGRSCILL
UniProt P98179: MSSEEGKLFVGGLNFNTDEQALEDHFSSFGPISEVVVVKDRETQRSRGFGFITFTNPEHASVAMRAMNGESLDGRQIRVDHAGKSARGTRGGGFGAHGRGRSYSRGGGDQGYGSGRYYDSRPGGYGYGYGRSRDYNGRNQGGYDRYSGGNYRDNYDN
UniProt P61006: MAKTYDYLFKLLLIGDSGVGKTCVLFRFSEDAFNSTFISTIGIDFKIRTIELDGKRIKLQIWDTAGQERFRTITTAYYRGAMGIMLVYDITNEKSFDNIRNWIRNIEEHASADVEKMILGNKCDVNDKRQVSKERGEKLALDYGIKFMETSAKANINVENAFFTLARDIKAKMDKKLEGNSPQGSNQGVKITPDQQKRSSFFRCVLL
UniProt P55771: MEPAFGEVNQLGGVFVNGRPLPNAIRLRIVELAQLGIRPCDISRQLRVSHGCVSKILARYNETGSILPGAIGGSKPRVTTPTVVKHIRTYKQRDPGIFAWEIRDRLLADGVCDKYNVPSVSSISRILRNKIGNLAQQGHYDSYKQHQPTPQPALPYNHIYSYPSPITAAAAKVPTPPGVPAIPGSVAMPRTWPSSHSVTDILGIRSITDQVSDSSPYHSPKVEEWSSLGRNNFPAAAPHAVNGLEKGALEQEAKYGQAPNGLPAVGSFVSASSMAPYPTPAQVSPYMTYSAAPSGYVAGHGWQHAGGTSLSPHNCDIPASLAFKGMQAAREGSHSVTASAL
UniProt P54277: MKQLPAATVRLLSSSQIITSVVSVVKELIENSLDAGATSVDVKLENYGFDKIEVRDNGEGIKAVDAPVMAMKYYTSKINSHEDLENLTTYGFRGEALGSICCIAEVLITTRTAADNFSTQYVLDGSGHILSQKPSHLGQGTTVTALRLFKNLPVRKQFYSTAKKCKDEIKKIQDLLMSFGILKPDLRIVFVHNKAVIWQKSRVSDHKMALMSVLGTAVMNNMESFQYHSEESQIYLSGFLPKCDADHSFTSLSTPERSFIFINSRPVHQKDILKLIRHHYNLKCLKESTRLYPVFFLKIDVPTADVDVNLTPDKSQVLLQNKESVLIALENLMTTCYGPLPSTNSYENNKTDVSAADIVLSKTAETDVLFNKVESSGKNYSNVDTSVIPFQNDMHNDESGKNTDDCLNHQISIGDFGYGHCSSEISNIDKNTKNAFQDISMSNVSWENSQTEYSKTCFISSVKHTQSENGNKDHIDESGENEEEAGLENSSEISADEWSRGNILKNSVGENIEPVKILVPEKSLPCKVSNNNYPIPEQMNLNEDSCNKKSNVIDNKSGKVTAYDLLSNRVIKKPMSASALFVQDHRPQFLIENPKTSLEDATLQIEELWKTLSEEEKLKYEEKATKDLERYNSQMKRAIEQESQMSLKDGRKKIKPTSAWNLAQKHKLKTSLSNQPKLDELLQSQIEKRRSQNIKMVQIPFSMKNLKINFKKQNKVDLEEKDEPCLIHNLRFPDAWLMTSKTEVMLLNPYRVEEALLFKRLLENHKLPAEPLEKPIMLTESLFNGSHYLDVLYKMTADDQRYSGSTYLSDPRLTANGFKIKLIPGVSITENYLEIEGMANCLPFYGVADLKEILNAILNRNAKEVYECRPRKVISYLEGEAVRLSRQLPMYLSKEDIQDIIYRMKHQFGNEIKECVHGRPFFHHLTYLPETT
UniProt P62942, whole entry: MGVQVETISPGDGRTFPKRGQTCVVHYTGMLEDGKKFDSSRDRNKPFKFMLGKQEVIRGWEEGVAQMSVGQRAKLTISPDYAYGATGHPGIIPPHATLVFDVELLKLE
UniProt P54577: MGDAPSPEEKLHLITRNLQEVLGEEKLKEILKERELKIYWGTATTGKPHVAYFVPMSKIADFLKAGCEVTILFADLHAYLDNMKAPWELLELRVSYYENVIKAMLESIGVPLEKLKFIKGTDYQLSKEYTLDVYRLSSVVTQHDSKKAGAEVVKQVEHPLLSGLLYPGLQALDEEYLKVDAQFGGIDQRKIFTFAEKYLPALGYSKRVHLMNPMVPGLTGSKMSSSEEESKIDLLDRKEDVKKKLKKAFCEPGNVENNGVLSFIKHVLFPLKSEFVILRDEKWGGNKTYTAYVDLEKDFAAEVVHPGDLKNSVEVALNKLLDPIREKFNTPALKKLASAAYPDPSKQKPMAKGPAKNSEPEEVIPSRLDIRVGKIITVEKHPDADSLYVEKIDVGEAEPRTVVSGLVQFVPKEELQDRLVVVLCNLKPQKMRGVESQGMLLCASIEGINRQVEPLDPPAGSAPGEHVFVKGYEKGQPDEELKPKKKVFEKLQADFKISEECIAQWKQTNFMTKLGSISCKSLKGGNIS
UniProt P78410: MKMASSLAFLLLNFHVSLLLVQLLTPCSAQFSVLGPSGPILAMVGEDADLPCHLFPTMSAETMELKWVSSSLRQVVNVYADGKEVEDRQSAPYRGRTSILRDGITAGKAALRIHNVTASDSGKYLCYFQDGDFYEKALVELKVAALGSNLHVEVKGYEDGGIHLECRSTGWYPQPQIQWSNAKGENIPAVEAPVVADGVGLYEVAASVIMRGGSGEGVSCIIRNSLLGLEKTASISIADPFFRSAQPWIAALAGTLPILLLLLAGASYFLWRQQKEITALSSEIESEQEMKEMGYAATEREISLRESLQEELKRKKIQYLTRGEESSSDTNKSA
UniProt P53365: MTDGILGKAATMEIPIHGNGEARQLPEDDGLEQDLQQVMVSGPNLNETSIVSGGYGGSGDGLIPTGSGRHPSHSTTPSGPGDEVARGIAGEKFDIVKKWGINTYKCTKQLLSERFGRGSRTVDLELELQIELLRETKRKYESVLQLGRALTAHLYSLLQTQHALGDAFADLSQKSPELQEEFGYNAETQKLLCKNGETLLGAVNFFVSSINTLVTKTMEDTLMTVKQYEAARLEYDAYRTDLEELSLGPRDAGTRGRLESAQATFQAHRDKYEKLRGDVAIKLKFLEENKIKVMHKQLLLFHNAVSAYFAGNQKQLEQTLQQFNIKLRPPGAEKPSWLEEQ
UniProt P61020: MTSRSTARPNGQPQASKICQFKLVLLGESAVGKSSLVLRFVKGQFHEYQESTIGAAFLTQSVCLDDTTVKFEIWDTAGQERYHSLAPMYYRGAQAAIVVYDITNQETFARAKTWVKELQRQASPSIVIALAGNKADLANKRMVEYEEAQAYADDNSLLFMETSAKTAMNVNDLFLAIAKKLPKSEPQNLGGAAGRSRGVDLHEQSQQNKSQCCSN
UniProt P56192: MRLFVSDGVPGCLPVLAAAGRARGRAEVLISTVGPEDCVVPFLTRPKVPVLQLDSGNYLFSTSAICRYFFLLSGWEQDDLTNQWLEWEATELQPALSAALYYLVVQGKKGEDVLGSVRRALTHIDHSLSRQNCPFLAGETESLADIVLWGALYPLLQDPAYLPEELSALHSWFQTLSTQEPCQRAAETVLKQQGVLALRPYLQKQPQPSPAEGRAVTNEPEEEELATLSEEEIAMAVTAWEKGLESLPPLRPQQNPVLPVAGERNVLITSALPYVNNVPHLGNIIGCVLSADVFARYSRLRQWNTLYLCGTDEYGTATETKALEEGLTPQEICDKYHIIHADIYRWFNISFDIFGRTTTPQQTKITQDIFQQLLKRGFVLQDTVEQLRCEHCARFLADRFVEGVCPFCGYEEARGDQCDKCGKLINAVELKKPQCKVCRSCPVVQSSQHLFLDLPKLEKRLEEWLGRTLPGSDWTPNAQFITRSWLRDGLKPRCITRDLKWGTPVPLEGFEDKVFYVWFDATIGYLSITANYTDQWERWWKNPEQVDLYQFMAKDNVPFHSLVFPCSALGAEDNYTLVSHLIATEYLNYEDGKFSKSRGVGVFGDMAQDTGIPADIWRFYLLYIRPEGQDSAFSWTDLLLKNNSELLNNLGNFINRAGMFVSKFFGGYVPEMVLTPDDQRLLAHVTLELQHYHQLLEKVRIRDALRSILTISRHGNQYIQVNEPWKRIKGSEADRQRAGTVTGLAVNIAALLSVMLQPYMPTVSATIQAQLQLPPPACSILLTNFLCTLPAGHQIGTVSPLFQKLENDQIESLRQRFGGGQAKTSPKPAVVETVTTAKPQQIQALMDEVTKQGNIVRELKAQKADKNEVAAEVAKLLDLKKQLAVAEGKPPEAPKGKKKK
UniProt P61106, whole entry, looked up: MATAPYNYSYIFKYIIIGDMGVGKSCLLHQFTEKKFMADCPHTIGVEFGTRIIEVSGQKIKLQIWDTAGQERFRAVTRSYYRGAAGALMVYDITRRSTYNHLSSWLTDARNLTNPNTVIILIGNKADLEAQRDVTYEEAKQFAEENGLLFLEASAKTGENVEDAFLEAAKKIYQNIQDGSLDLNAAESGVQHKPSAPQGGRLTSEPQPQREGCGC
UniProt P78347: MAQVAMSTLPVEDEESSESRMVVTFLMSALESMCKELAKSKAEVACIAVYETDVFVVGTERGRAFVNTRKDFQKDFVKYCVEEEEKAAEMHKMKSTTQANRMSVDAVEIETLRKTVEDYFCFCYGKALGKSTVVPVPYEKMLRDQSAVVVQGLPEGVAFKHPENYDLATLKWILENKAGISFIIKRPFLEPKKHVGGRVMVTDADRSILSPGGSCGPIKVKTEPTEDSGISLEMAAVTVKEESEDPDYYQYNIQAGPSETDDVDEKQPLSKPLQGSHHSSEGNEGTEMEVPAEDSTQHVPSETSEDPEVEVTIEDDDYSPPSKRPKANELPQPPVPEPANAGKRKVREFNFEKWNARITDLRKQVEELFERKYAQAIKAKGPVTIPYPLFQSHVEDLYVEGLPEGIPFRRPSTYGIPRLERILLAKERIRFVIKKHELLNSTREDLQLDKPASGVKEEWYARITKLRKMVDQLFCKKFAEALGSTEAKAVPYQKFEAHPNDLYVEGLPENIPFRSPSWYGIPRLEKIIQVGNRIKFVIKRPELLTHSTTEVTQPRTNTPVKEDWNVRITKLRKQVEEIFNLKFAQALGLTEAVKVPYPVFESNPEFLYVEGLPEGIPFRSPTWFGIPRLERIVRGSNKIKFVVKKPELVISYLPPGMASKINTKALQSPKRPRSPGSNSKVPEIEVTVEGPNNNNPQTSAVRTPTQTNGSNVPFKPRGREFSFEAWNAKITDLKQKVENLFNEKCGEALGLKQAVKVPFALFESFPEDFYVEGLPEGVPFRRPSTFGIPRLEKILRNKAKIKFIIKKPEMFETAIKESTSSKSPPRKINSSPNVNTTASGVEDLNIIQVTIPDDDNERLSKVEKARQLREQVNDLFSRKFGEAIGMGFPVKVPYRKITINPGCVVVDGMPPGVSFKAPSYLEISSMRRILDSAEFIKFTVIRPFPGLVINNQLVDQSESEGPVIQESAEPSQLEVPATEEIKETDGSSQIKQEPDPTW
UniProt P78330: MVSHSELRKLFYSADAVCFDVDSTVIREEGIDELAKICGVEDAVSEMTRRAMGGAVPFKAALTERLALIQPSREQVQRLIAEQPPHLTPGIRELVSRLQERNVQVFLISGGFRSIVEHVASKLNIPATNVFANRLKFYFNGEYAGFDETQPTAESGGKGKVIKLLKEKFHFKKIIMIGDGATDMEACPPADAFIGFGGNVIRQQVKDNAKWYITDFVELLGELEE
UniProt P81605: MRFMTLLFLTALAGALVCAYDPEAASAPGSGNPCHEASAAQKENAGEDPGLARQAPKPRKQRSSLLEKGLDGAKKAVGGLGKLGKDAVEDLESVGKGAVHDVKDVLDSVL
UniProt Q00169: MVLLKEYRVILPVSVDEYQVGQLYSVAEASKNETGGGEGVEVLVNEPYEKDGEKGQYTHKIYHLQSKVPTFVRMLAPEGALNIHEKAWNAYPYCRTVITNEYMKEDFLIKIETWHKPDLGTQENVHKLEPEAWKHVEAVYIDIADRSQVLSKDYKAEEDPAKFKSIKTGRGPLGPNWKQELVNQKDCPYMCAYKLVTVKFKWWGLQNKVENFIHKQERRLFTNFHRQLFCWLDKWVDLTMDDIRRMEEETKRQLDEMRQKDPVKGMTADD
UniProt P57076: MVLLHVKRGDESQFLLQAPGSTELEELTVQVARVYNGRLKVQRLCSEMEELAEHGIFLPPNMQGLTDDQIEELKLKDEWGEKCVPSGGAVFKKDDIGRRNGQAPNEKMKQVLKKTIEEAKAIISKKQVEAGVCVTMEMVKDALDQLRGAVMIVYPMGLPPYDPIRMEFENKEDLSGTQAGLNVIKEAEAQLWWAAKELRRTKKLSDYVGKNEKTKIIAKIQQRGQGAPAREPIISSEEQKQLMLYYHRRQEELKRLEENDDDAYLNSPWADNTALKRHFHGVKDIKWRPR
UniProt P61026: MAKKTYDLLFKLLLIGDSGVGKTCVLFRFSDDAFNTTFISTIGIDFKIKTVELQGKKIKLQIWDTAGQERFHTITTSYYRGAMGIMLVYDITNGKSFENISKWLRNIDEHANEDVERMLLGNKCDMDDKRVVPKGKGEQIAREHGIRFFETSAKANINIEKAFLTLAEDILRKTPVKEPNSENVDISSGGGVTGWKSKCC

Compound: Nc1ncnc2c1ncn2[C@@H]1O[C@H](COP(=O)(O)OP(=O)(O)OP(=O)(O)O)[C@@H](O)[C@H]1O [adenosine triphosphate]
Test: NP40-soluble protein abundance relative to vehicle (solubility fold change) (ratio); higher = more soluble protein in presence of ATP
Method in brief: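 Data come from three independent experiments in which Dounce-homogenised Jurkat crude lysate was treated at eight concentrations from 0.1 to 10 mM. Treatment ran 10 min at room temperature and then 3 min at 37 °C, after which 0.8% NP40 and benzonase were added for 60 min at 4 °C before ultracentrifugation. The supernatant underwent TMT labelling and LC-MS/MS, and vsn-normalised intensities were expressed as fold change against the detergent-processed vehicle in each replicate.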

Target	NP40-soluble protein abundance (concentration: 0.1mM)	NP40-soluble protein abundance (concentration: 0.5mM)
UniProt P55072	1 ± 0.027	1.01 ± 0.056
UniProt P84095	1.01 ± 0.061	1.01 ± 0.064
UniProt P56159 and related entries	0.912 ± 0.089	0.936 ± 0.071
P62158 (UniProt P0DP23)	0.94 ± 0.15	1.06 ± 0.19
UniProt P61024 and related entries	0.938 ± 0.042	1.03 ± 0.075
UniProt P61088	0.964 ± 0.032	0.897 ± 0.1
UniProt P53384 and related entries	0.967 ± 0.058	0.991 ± 0.074
UniProt P62273	0.81 ± 0.18	0.771 ± 0.17
EEFSEC (UniProt P57772)	1.02 ± 0.037	1.01 ± 0.026
UniProt P62072	0.975 ± 0.065	0.979 ± 0.11
UniProt P62834	1.02 ± 0.049	1.07 ± 0.077
RBM3 (UniProt P98179)	0.947 ± 0.038	0.977 ± 0.034
MRPS34 (UniProt P82930)	0.967 ± 0.094	0.945 ± 0.1
NOP14 (UniProt P78316)	0.956 ± 0.02	0.966 ± 0.034
UniProt P53367 and related entries	0.993 ± 0.034	1.04 ± 0.1
RPL38 (UniProt P63173)	0.969 ± 0.073	0.939 ± 0.061
UniProt P62917	0.95 ± 0.099	0.921 ± 0.13
UniProt P78356	1.02 ± 0.021	1.02 ± 0.024
UniProt P55210 and related entries	0.993 ± 0.031	1.05 ± 0.06
MRPS10 (UniProt P82664)	0.987 ± 0.11	0.978 ± 0.09
UniProt P61962	1.07 ± 0.062	1.12 ± 0.057
RPL7A (UniProt P62424)	0.985 ± 0.062	0.945 ± 0.054
UniProt P56385	0.944 ± 0.037	1.02 ± 0.015
HCCS (UniProt P53701)	0.999 ± 0.03	1.06 ± 0.067

Target	NP40-soluble protein abundance (concentration: 0.1mM)	NP40-soluble protein abundance (concentration: 0.5mM)
RAB8A (UniProt P61006)	0.983 ± 0.048	1.02 ± 0.051
ITGA1 (UniProt P56199)	0.934 ± 0.066	0.911 ± 0.035
UniProt P55771	0.929 ± 0.27	0.878 ± 0.18
UniProt P54277 and related entries	1.07 ± 0.076	1.22 ± 0.061
HADHB (UniProt P55084)	0.994 ± 0.026	0.995 ± 0.04
UniProt P54687 and related entries	1.06 ± 0.078	1.03 ± 0.084
FKBP1A (UniProt P62942)	1 ± 0.041	0.984 ± 0.057
PURA (UniProt Q00577)	0.95 ± 0.035	0.984 ± 0.07
GSTO1 (UniProt P78417)	0.987 ± 0.036	0.976 ± 0.072
UniProt P61019 and related entries	1.05 ± 0.098	0.998 ± 0.038
YARS (UniProt P54577)	1.02 ± 0.067	1.06 ± 0.08
SEC61B (UniProt P60468)	0.848 ± 0.21	0.811 ± 0.28
SUCLG1 (UniProt P53597)	0.987 ± 0.039	1.04 ± 0.027
UniProt P63146	0.941 ± 0.12	0.988 ± 0.061
EIF6 (UniProt P56537)	1.06 ± 0.054	1.07 ± 0.078
BLM (UniProt P54132)	1.02 ± 0.04	1.01 ± 0.029
UniProt P78410 and related entries	0.994 ± 0.042	0.944 ± 0.041
UniProt P53365 and related entries	0.975 ± 0.021	0.952 ± 0.027
UniProt P61020	0.987 ± 0.043	1.05 ± 0.026
UniProt P62701	0.927 ± 0.12	0.892 ± 0.13
UniProt P63272	1.03 ± 0.063	0.968 ± 0.056
UniProt P62191	0.996 ± 0.022	0.969 ± 0.036
UniProt P62851	0.823 ± 0.19	0.812 ± 0.26
MARS (UniProt P56192)	0.97 ± 0.05	0.993 ± 0.069

Record cards, as listed above. Order of values: NP40-soluble protein abundance (concentration: 0.1mM)	NP40-soluble protein abundance (concentration: 0.5mM)
YARS (UniProt P54577) in the list: 1.02 ± 0.067	1.06 ± 0.08
UniProt P55072 in the list: 1 ± 0.027	1.01 ± 0.056
EIF6 (UniProt P56537) in the list: 1.06 ± 0.054	1.07 ± 0.078
HCCS (UniProt P53701) in the list: 0.999 ± 0.03	1.06 ± 0.067

The results go on:

Target	NP40-soluble protein abundance (concentration: 0.1mM)	NP40-soluble protein abundance (concentration: 0.5mM)
TMSB4X (UniProt P62328)	0.981 ± 0.11	0.884 ± 0.09
UniProt P56937 and related entries	1.02 ± 0.047	1.04 ± 0.052
UniProt P78346 and related entries	1.01 ± 0.11	1.02 ± 0.07
PCBD1 (UniProt P61457)	0.941 ± 0.037	0.878 ± 0.068
UniProt P61927	0.917 ± 0.041	0.875 ± 0.044
UniProt P55327-2|P55327-4	0.84 ± 0.23	0.806 ± 0.28
FOXK1 (UniProt P85037)	0.987 ± 0.046	1.01 ± 0.052
UniProt P55265 and related entries	1.04 ± 0.04	1.07 ± 0.041
PGGT1B (UniProt P53609)	1.02 ± 0.045	0.972 ± 0.13
YBX1 (UniProt P67809)	0.966 ± 0.049	0.976 ± 0.018
PLK1 (UniProt P53350)	0.983 ± 0.027	0.907 ± 0.026
UniProt P61254	0.917 ± 0.092	0.928 ± 0.08
UniProt P61764 and related entries	1.02 ± 0.03	1.01 ± 0.052
UniProt P61106	0.985 ± 0.062	1.01 ± 0.045
UniProt P52948 and related entries	0.99 ± 0.032	1.02 ± 0.022
UniProt P61960	0.967 ± 0.097	0.943 ± 0.16
CRADD (UniProt P78560)	0.921 ± 0.055	0.884 ± 0.068
UniProt P84090	0.928 ± 0.13	1.02 ± 0.11
UniProt P62487	0.992 ± 0.076	0.969 ± 0.07
UniProt P62306	0.9 ± 0.018	0.934 ± 0.15
UniProt P78347 and related entries	0.9779 ± 0.0067	0.994 ± 0.024
UniProt P60842	1.03 ± 0.065	1.09 ± 0.056
MLLT10 (UniProt P55197)	1.01 ± 0.17	0.984 ± 0.11
YPEL5 (UniProt P62699)	0.9516 ± 0.0092	0.92 ± 0.11

Target	NP40-soluble protein abundance (concentration: 0.1mM)	NP40-soluble protein abundance (concentration: 0.5mM)
UniProt P58557 and related entries	0.957 ± 0.14	0.937 ± 0.057
UniProt Q00613 and related entries	0.9763 ± 0.0093	0.943 ± 0.04
UniProt P61221	1.03 ± 0.071	1.03 ± 0.063
UniProt P78362-2|P78362	1.04 ± 0.062	1.04 ± 0.044
UniProt P57088 and related entries	0.888 ± 0.085	0.887 ± 0.2
MRPS6 (UniProt P82932)	0.846 ± 0.15	0.861 ± 0.17
UniProt P56202 and related entries	1 ± 0.038	1.01 ± 0.086
UniProt P78330 and related entries	0.97 ± 0.012	0.969 ± 0.041
UniProt Q00013 and related entries	1.04 ± 0.06	1.05 ± 0.043
UniProt P61970	0.995 ± 0.03	0.988 ± 0.057
UniProt P55899 and related entries	0.936 ± 0.095	0.897 ± 0.085
UniProt P62913 and related entries	0.955 ± 0.086	0.976 ± 0.061
GMFB (UniProt P60983)	0.993 ± 0.1	0.963 ± 0.057
UniProt P62888	0.932 ± 0.16	0.896 ± 0.15
MAT1A (UniProt Q00266)	1.09 ± 0.091	1.02 ± 0.13
MAX (UniProt P61244)	0.798 ± 0.17	0.843 ± 0.29
CEBPG (UniProt P53567)	1.09 ± 0.081	1.01 ± 0.069
UniProt P63010 and related entries	0.986 ± 0.057	1.09 ± 0.028
DCD (UniProt P81605)	1.25 ± 0.93	1.52 ± 0.16
UniProt P61978 and related entries	0.9907 ± 0.0099	0.986 ± 0.031
RPP38 (UniProt P78345)	0.941 ± 0.027	0.944 ± 0.055
POLG (UniProt P54098)	1 ± 0.052	0.989 ± 0.037
XIAP (UniProt P98170)	1.06 ± 0.041	1.03 ± 0.04
UniProt Q00537 and related entries	0.988 ± 0.065	1.14 ± 0.044

Target	NP40-soluble protein abundance (concentration: 0.1mM)	NP40-soluble protein abundance (concentration: 0.5mM)
UniProt P60604 and related entries	1.01 ± 0.043	0.975 ± 0.14
PAFAH1B2 (UniProt P68402)	0.866 ± 0.03	0.928 ± 0.097
UniProt P84022	0.98 ± 0.039	0.981 ± 0.063
MVD (UniProt P53602)	1.03 ± 0.072	1 ± 0.03
PITPNA (UniProt Q00169)	1.02 ± 0.063	1.02 ± 0.028
UniProt P67936 and related entries	0.889 ± 0.11	0.77 ± 0.28
UniProt P55060 and related entries	0.966 ± 0.03	0.966 ± 0.03
RABGGTB (UniProt P53611)	1.09 ± 0.1	1.09 ± 0.1
UniProt P61956	0.831 ± 0.072	0.829 ± 0.13
UniProt P56559 and related entries	1.14 ± 0.048	1.22 ± 0.022
ELL (UniProt P55199)	1 ± 0.021	1.02 ± 0.042
UniProt P62312	0.934 ± 0.059	0.936 ± 0.088
UniProt P57076	0.979 ± 0.037	0.967 ± 0.036
UniProt P62263	0.95 ± 0.089	0.98 ± 0.072
MFAP1 (UniProt P55081)	0.995 ± 0.067	1.06 ± 0.041
UniProt P68371	0.977 ± 0.075	1.06 ± 0.13
UniProt P60520	0.974 ± 0.12	0.989 ± 0.14
UniProt P61026	0.981 ± 0.031	0.985 ± 0.021
UniProt P63313	0.952 ± 0.054	0.935 ± 0.072
GFER (UniProt P55789)	0.909 ± 0.1	0.861 ± 0.17
UniProt P62495	1.04 ± 0.092	1.06 ± 0.071
UniProt P84085	1.07 ± 0.14	0.981 ± 0.033
TFAM (UniProt Q00059)	0.845 ± 0.18	0.809 ± 0.23
ACTR3 (UniProt P61158)	1.1 ± 0.085	1.04 ± 0.05
